# Measured values taken from the supplement of paper PMC10849652.
# The chains behind the UniProt entries cited, without tags or fusion partners. Where a name states a change or a piece, a line headed by the entry shows the natural chain unless it says otherwise.
# UniProt P18858, whole entry, looked up: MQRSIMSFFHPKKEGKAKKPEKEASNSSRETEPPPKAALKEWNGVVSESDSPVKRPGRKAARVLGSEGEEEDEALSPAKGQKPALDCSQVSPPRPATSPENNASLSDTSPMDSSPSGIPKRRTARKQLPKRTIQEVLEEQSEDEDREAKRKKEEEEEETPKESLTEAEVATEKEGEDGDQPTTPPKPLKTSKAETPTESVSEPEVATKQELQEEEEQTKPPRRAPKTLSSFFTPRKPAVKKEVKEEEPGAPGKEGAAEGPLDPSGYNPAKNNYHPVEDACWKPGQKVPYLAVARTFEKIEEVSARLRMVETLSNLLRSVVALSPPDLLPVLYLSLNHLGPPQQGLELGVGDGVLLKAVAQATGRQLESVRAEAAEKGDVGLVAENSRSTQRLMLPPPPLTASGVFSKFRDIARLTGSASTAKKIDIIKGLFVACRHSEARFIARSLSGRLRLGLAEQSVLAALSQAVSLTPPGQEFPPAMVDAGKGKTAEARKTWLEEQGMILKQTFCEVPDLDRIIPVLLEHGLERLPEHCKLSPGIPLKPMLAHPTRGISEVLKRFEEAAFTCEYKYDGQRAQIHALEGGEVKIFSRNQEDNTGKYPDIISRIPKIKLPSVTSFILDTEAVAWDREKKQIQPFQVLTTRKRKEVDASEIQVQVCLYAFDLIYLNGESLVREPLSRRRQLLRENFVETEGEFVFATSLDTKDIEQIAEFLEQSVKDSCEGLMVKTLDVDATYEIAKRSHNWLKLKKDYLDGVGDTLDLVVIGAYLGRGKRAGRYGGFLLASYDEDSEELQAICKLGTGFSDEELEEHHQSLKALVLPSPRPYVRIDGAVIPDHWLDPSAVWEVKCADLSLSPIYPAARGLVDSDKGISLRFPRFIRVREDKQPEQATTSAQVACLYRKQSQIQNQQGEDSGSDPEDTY
# UniProt O15243: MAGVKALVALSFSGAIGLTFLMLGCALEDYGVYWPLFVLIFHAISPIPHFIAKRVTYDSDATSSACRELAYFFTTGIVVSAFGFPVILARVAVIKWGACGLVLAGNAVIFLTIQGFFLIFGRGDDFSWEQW
# UniProt Q9BT23: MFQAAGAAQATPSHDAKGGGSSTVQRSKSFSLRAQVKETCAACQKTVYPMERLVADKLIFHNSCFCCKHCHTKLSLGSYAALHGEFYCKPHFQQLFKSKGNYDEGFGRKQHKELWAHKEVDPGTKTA
# UniProt A6NK58: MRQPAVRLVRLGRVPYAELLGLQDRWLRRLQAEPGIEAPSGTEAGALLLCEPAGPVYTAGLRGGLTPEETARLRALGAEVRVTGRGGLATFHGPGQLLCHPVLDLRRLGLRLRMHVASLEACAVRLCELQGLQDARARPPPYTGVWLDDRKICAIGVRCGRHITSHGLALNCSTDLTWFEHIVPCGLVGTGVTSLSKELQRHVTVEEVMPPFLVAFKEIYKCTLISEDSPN
# UniProt P02750: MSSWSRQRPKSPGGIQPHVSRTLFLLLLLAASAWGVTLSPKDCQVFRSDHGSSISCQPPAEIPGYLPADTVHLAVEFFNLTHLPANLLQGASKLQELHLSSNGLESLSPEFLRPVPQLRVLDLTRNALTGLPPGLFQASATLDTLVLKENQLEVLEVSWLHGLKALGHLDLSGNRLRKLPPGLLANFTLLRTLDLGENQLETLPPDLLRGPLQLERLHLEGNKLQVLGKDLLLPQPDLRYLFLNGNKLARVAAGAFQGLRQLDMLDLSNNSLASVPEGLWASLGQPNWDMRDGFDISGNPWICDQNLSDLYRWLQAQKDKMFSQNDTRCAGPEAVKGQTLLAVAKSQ
# UniProt Q7Z4F1: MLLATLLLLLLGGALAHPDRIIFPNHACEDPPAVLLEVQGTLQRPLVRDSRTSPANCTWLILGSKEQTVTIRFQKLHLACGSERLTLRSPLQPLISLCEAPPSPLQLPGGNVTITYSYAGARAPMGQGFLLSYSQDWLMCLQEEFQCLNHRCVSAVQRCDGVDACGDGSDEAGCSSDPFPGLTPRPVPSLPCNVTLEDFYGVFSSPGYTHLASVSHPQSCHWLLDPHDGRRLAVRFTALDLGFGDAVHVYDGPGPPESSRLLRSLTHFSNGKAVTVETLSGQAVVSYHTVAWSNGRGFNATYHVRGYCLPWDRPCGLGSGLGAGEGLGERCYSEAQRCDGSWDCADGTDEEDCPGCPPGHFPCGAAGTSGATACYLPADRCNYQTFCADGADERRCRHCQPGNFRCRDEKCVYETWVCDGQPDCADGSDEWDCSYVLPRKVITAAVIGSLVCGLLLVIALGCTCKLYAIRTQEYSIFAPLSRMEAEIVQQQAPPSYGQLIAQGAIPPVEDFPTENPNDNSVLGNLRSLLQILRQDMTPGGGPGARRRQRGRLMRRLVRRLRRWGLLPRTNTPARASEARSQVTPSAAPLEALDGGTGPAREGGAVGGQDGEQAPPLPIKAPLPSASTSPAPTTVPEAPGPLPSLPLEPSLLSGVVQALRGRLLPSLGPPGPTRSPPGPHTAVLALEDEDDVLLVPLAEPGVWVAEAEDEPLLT
# UniProt Q8WVP7: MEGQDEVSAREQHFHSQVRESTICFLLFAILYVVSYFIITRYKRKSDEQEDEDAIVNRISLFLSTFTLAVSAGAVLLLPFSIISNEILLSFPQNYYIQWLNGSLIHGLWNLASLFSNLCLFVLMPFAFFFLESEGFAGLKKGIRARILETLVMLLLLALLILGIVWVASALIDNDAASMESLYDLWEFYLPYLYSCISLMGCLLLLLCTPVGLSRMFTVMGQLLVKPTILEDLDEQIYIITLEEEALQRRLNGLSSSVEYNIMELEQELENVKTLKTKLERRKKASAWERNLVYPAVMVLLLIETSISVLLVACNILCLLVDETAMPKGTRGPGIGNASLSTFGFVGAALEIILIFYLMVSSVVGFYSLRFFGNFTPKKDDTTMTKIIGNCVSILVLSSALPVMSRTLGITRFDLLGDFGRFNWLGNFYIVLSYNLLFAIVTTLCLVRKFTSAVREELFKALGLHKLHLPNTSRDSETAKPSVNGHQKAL
# UniProt Q9Y2U8: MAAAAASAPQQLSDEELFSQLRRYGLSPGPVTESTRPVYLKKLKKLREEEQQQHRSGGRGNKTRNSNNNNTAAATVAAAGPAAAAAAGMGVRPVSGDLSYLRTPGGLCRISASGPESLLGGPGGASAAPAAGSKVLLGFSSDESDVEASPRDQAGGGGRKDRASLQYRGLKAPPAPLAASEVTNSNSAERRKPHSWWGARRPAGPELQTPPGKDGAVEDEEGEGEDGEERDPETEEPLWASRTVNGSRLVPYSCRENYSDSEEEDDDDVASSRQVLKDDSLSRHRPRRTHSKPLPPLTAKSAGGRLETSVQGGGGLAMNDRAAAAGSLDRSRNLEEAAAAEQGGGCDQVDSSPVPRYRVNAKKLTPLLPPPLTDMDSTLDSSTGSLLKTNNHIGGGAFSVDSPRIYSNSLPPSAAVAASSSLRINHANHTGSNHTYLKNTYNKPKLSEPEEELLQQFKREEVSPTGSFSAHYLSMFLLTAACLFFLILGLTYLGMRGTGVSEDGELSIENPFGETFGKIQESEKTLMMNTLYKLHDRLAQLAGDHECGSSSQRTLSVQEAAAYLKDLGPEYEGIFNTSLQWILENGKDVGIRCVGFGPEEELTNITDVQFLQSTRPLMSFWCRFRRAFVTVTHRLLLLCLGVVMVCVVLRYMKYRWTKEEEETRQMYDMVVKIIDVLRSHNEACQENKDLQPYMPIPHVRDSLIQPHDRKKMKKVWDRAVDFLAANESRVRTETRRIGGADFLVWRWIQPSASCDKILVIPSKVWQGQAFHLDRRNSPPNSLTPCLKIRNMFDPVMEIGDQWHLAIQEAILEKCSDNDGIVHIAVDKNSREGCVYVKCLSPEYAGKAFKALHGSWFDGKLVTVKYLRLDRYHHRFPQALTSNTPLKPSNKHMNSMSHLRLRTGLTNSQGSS
# UniProt Q86WU2: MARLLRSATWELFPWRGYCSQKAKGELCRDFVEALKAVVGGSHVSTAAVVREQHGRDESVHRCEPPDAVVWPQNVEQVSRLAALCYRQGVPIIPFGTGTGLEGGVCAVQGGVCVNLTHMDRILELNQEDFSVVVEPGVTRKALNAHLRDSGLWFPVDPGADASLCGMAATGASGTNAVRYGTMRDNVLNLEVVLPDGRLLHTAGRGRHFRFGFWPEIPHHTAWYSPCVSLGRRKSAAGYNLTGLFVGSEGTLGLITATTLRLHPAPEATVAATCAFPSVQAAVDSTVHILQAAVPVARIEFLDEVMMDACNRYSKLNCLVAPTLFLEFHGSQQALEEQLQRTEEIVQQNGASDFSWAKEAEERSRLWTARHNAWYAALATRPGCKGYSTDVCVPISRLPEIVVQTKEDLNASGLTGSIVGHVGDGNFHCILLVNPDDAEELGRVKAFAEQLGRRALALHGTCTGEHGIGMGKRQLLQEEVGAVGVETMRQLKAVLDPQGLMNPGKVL
# UniProt P53667: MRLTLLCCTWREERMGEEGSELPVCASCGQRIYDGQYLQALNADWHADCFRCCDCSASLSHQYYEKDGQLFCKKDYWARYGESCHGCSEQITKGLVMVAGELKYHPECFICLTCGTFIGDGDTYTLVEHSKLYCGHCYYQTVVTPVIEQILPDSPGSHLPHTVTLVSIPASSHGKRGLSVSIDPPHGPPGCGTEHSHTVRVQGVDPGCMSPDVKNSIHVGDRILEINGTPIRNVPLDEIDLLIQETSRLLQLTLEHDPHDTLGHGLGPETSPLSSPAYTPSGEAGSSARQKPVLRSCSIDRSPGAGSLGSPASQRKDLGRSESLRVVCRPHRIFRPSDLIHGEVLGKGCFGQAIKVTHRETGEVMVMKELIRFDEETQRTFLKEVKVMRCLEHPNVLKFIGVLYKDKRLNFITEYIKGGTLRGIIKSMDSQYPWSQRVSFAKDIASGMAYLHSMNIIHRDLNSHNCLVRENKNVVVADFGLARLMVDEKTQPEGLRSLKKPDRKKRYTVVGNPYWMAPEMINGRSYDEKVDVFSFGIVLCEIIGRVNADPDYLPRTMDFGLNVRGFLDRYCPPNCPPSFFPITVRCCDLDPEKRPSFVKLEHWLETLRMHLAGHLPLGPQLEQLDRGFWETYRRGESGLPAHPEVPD
# UniProt Q92604: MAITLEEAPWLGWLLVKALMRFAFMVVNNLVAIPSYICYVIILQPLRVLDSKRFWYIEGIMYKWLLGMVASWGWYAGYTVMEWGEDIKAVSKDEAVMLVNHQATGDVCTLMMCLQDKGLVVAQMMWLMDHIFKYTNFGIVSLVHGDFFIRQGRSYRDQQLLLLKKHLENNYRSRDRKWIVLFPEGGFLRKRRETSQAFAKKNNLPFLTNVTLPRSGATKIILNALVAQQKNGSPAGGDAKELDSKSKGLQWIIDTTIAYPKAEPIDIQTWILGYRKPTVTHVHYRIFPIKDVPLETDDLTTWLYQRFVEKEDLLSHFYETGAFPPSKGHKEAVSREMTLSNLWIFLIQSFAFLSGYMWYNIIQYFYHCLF
# UniProt Q8TBB1: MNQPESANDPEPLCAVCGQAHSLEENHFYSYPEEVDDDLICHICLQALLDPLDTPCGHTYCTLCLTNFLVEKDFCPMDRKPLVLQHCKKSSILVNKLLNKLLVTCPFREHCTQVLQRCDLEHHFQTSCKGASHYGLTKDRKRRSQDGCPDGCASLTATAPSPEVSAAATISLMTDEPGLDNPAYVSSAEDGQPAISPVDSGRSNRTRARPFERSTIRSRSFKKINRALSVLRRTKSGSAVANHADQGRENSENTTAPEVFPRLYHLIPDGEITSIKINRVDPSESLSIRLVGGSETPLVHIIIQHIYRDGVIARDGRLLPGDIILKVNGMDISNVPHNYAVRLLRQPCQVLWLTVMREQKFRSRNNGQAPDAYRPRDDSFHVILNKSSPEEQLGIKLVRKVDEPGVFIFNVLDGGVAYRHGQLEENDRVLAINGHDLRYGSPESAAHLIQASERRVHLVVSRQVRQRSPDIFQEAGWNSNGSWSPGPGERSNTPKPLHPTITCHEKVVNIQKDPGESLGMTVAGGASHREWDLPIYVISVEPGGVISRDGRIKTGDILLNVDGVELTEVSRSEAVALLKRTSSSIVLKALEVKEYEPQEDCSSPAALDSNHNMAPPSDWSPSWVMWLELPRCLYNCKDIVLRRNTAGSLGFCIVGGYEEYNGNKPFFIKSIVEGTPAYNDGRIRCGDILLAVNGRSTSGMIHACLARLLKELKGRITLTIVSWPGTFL
# UniProt Q52LA3: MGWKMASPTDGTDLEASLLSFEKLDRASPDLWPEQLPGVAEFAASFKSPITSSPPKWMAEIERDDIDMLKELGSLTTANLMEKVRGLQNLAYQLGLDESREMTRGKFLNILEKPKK
# UniProt Q53QV2: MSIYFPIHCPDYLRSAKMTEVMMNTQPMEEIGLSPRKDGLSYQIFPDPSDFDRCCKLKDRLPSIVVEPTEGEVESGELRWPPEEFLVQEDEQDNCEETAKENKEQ
# Some of the results follow.
# Key:
# Experiment in all cases: log2 fold change, soluble protein after heating vs DMSO (PISA); higher = thermal stabilisation; K562 lysate, 10 uM; active = over 0.2 and 3.5 SD of the protein, either way, in both replicates (recomputed)
# entospletinib = compound: c1cn2cc(-c3ccc4cn[nH]c4c3)nc(Nc3ccc(N4CCOCC4)cc3)c2n1 [entospletinib]
# Procedure, shortened: (§1)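 K562 pellets were dounce-homogenised in PBS pH 7.4 containing 1 mM MgCl2, and the crude extract, at 1 mg/mL protein, was exposed to 10 μM compound for 30 min. Aliquots were heated for 3 min across 48°C-58°C, pooled, brought to 0.5% NP-40 at 4°C and spun at 21,000xg for 90 min, with the supernatant taken as soluble protein. TMTpro 16plex LC-MS/MS with equalised channel sums quantified that protein. Values are log-two fold changes in thermal stability relative to solvent controls, taken from duplicates.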
# vorinostat = compound: O=C(CCCCCCC(=O)Nc1ccccc1)NO [vorinostat]
# Procedure, shortened: as §1
# silmitasertib = compound: O=C(O)c1ccc2c(c1)nc(Nc1cccc(Cl)c1)c1ccncc12 [silmitasertib]
# Procedure, shortened: as §1
# [1] = compound: O=C1NC(=O)C(c2cnc3ccccn23)=C1c1cn2c3c(cc(F)cc13)CN(C(=O)N1CCCCC1)CC2
# Procedure, shortened: as §1
# [2] = compound: NCC(=O)Nc1ccc(-n2nc(C(F)(F)F)cc2-c2ccc3c(ccc4ccccc43)c2)cc1
# Procedure, shortened: as §1
target,measurement,setting,value
LIG1 isoform 3 (UniProt P18858),log2 fold change,entospletinib,inactive: 0.025
LEPROT (UniProt O15243),log2 fold change,vorinostat,active: -0.641
same,log2 fold change,silmitasertib,inactive: 0.167
same,log2 fold change,[1],inactive: -0.007
same,log2 fold change,entospletinib,inactive: 0.115
LIMD2 (UniProt Q9BT23),log2 fold change,[1],inactive: 0.005
LIPT2 (UniProt A6NK58),log2 fold change,entospletinib,inactive: -0.052
LRG1 (UniProt P02750),log2 fold change,vorinostat,inactive: -0.007
same,log2 fold change,silmitasertib,inactive: -0.036
same,log2 fold change,[1],inactive: -0.055
same,log2 fold change,entospletinib,inactive: 0.075
LONRF2 (UniProt Q1L5Z9),log2 fold change,vorinostat,inactive: -0.22
same,log2 fold change,silmitasertib,inactive: 0
same,log2 fold change,[1],inactive: 0.077
same,log2 fold change,entospletinib,inactive: -0.193
LRP10 (UniProt Q7Z4F1),log2 fold change,vorinostat,inactive: 0.311
same,log2 fold change,silmitasertib,inactive: -0.062
same,log2 fold change,entospletinib,inactive: 0.013
LMBR1 isoform 3 (UniProt Q8WVP7),log2 fold change,[1],inactive: 0.017
LEMD3 (UniProt Q9Y2U8),log2 fold change,vorinostat,inactive: 0.165
same,log2 fold change,silmitasertib,inactive: -0.135
same,log2 fold change,[1],inactive: 0.017
LDHD (UniProt Q86WU2),log2 fold change,entospletinib,inactive: 0.026
LIMK1 (UniProt P53667),log2 fold change,[2],inactive: -0.127
same,log2 fold change,[1],inactive: 0.281
same,log2 fold change,entospletinib,inactive: 0.027
LPGAT1 (UniProt Q92604),log2 fold change,vorinostat,inactive: -0.058
same,log2 fold change,silmitasertib,inactive: -0.003
same,log2 fold change,entospletinib,inactive: 0.147
LNX1 (UniProt Q8TBB1),log2 fold change,[1],inactive: 0.015
LIN52 (UniProt Q52LA3),log2 fold change,vorinostat,inactive: 0.135
same,log2 fold change,silmitasertib,inactive: 0.07
same,log2 fold change,[1],inactive: -0.043
LBH (UniProt Q53QV2),log2 fold change,vorinostat,inactive: 0.148
same,log2 fold change,silmitasertib,inactive: -0.075
same,log2 fold change,entospletinib,inactive: -0.115

# Part of the list above, as tab-separated lines:
target	measurement	setting	value
LRG1 (UniProt P02750)	log2 fold change	vorinostat	inactive: -0.007
same	log2 fold change	silmitasertib	inactive: -0.036
same	log2 fold change	[1]	inactive: -0.055
same	log2 fold change	entospletinib	inactive: 0.075
LONRF2 (UniProt Q1L5Z9)	log2 fold change	vorinostat	inactive: -0.22
same	log2 fold change	silmitasertib	inactive: 0
same	log2 fold change	[1]	inactive: 0.077
same	log2 fold change	entospletinib	inactive: -0.193
